Data set [1] is described as follows: physchem. The settings on record: buffer, pH 6.5.
The next data set is described as follows: in vitro. The settings on record: human, Caco-2.
Data set [2] can be described thus: physchem. The settings on record: buffer, pH 7.5.

We go through one compound from ChEMBL document CHEMBL4837246 (J Med Chem, 2021).

Values after ≈ are worked out from the molar mass of the structure shown.

In turn, `FC(F)c1cncc(-c2ccc3ncc4nnc(C5=CCCOCC5)n4c3c2)c1` registered a solubility at 24 h in “physchem [1]” of 0.099 mg/mL (≈ 252 µM). Moreover, the apparent permeability from apical to basolateral (Papp A→B) at 2 h, 2 µM in the data set “in vitro” stood at 305 nm/s. Moreover, in the data set “physchem [2]”, the chromatographic logD was 1.8.
